# Results deposited as PubChem BioAssay AID1508597 (Cure First, 2020).
# Purpose: 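Knock-downs altering ovarian cancer cell survival with or without PARP inhibitor rucaparib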 (primary screen)
# System: human ovarian carcinoma lines grown from tumours: OCI-P5x (papillary serous) and OCI-C5x (clear cell)
# Reagent: siRNA pool against human genes, 1.25 pmol siRNA per well
# Time to read-out: 72 h or 96 h, depending on the cell culture
# Challenge: rucaparib 20 µM (about IC30) or vehicle, present until read-out
# Rucaparib or vehicle: Rucaparib
# Cell line: OCI-C5x (clear cell)
# Read-out: 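ATP luminescence measured at 72 or 96 h according to the culture, then normalised and expressed as percent viability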
# Reading the numbers: viability, normalised: higher = more viable cells remaining
# Active means: 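Active when normalised viability falls below 80 percent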
# Meaning of the calls: active = viability under 80%; inactive = viability 80% or more
# Shown is a random part of the about 2,100 reagents, in one setting of the screen. 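Calls flag viability under 80% in either arm, not effects specific to rucaparib; the reference for percent is not stated.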 Unmarked entries are inactive. Not given: the 100% reference.
target gene,technical replicate,"viability, normalised (%)"
RYR1,1,41.6 (active)
RYR1,2,38.3 (active)
RYR1,3,32.4 (active)
FBXO11,1,31.1 (active)
FBXO11,2,31.3 (active)
FBXO11,3,24.1 (active)
PDE1A,1,41 (active)
PDE1A,2,33.1 (active)
PDE1A,3,38.9 (active)
NDRG1,1,57 (active)
NDRG1,2,85.6
NDRG1,3,70 (active)
PDZD2,1,47.7 (active)
PDZD2,2,53.9 (active)
PDZD2,3,55.4 (active)
TADA1,1,79.3 (active)
TADA1,2,56.9 (active)
TADA1,3,44.6 (active)
NDUFA10,1,72.2 (active)
NDUFA10,2,66.6 (active)
NDUFA10,3,60 (active)
CLDN8,1,59.1 (active)
CLDN8,2,44.1 (active)
CLDN8,3,52.6 (active)
RPL5,1,38.3 (active)
RPL5,2,46.1 (active)
RPL5,3,55.1 (active)
BCL2,1,88.5
BCL2,2,66.5 (active)
BCL2,3,56.6 (active)
RRM2,1,41.1 (active)
RRM2,2,33.4 (active)
RRM2,3,39.5 (active)
SLC22A12,1,52.6 (active)
SLC22A12,2,55 (active)
SLC22A12,3,50.3 (active)

7 entries from above, arranged by “viability, normalised (%)”, high to low.
target gene,technical replicate,"viability, normalised (%)"
PDE1A,1,41 (active)
RYR1,2,38.3 (active)
PDE1A,2,33.1 (active)
RYR1,3,32.4 (active)
FBXO11,2,31.3 (active)
FBXO11,1,31.1 (active)
FBXO11,3,24.1 (active)

The list goes on.
target gene,technical replicate,"viability, normalised (%)"
RPS19BP1,1,59.2 (active)
RPS19BP1,2,47.5 (active)
RPS19BP1,3,69.3 (active)
DHX38,1,50.5 (active)
DHX38,2,60 (active)
DHX38,3,50.6 (active)
CLDN19,1,30.9 (active)
CLDN19,2,26.8 (active)
CLDN19,3,22.7 (active)
DNER,1,45.9 (active)
DNER,2,40.3 (active)
DNER,3,40.7 (active)
HGF,1,48.4 (active)
HGF,2,45.5 (active)
HGF,3,48.3 (active)
SUPT4H1,1,51.3 (active)
SUPT4H1,2,45 (active)
SUPT4H1,3,62.4 (active)
PPARGC1A,1,52.6 (active)
PPARGC1A,2,37.9 (active)
PPARGC1A,3,38.5 (active)
